The target of the test is T1, FLAG epitope-tagged SCUBE2 (UniProt Q9NQ36).
T1 sequence: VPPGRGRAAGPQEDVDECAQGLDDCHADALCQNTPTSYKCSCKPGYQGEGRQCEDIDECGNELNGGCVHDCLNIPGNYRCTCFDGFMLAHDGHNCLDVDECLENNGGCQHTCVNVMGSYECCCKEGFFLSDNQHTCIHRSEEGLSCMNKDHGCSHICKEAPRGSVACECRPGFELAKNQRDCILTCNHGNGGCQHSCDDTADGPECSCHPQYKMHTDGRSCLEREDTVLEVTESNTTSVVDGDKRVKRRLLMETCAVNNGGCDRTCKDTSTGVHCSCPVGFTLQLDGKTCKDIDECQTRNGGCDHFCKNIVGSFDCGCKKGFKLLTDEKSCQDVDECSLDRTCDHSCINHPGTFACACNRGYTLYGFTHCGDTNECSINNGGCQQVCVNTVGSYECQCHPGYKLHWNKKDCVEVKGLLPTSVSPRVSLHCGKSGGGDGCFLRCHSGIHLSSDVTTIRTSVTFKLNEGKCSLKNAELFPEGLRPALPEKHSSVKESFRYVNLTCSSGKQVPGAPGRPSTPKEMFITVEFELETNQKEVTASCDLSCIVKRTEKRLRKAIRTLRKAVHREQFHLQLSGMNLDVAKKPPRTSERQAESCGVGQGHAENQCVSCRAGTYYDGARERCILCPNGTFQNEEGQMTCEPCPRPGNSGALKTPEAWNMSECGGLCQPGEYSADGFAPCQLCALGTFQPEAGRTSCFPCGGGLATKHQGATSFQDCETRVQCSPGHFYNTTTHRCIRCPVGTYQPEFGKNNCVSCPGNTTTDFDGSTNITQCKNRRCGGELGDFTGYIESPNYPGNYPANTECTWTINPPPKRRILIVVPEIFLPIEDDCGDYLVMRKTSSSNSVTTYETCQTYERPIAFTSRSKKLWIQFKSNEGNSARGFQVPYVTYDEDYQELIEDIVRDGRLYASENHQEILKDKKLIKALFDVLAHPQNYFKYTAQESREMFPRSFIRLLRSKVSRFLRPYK
The test is described as follows: co-IP.

Results are given in words; binding and its absence hold for the method and conditions named. In cells and extracts the contact can be indirect. Some results given as binding are weak or reduced against the parent protein; the word gives no strength. Where a sequence is shown, tags or fusion partners need not be part of it.

“HA-tagged PDGFRβ (from UniProt P09619 33-1106) (receptor)”: the binding result is listed as “binds”.
